Data from PubChem BioAssay AID540275 (National Center for Advancing Translational Sciences (NCATS), 2011).
Out of some 320,000 compounds screened, about 620 (0.19%) were called active. Inconclusive means that the source gave no clear call. Such entries were picked first, then a sample of the others. Cut-off read from the data, not from the text of the source: active = activation above about 80%; inconclusive = between about 30% and that limit; inactive = weaker than that.

Amino acid sequences for entries named in this document (tags omitted).
UniProt Q8NER1, whole entry, looked up: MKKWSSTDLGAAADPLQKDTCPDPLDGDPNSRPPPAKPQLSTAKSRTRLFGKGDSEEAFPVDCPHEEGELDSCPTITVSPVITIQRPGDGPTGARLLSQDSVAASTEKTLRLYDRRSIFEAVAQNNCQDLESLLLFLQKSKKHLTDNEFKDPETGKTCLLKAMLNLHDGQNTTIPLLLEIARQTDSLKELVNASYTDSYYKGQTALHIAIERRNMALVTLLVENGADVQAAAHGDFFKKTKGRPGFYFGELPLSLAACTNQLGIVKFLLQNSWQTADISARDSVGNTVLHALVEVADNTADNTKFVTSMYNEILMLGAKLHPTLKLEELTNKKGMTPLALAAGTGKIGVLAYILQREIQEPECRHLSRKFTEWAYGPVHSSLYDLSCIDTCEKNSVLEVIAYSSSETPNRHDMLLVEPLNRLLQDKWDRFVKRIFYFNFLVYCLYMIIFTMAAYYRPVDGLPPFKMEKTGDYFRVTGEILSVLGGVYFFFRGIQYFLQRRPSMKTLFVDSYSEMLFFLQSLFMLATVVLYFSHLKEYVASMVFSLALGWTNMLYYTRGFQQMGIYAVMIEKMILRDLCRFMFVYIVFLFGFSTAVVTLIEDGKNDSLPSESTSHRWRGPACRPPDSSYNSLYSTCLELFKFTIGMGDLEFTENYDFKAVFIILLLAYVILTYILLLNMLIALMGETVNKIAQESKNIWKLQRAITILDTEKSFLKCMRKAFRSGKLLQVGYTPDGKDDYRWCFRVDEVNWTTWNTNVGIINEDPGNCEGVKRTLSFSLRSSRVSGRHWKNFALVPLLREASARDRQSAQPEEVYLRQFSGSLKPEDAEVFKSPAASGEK

These compounds were tested against Transient receptor potential cation channel subfamily V member 1 (Homo sapiens) (UniProt Q8NER1) (assay: HTS Assay for Compounds that Act as Agonists of the Vanilloid Receptor 1). Conditions: TRPV1-expressing cells, Fluo-8 calcium influx, agonist mode; at 8.33 µM, stronger effect = higher value.
Procedure, shortened: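 Cells expressing TRPV1 were dye-loaded with Fluo-8 and read kinetically: 10 s baseline, 3 min after compound (agonist portion), then 2 min after EC20 capsaicin (allosteric enhancer portion). Calcium-bound dye fluorescence at 480/520 nm.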
Note: 0% is about no effect.

| Compound | activation |
| --- | --- |
| Cc1ccc(C)c2sc(N3CCN(C(=O)c4ccc([N+](=O)[O-])o4)CC3)nc12 | inconclusive: 41.5% |
| Cc1nn(-c2ccccc2)c(C)c1/C=N/NC(=O)c1cc(-c2ccc(Br)s2)[nH]n1 | inconclusive: 51.6% |
| O=C(CSc1nc2cc([N+](=O)[O-])ccc2n1-c1ccccc1)NCc1ccc2c(c1)OCO2 | inconclusive: 74% |
| Cc1ccc(S(=O)(=O)N2CCN(c3ccnc4cc(Cl)ccc34)CC2)cc1C | inactive: 10% |
| Cn1c(NCCO)nc2c1c(=O)n(Cc1cccc(Cl)c1)c(=O)n2C | inconclusive: 46.4% |
| O=C1NC2=C(CCc3ccccc32)C(c2ccc(Br)cc2)N1 (centres undefined) | inactive: -9.18% |
| Cc1cc(C)n(-c2ccc(C(=O)N3CCN(S(=O)(=O)c4ccc(Cl)cc4)CC3)cc2)n1 | inactive: -7.26% |
| COC(=O)Cc1ccc(NC(=O)c2ccc(C(C)(C)C)cc2)cc1 | active: 81.4% |
| COC(=O)C1=CN(Cc2ccc(F)cc2)C=C(C(=O)OC)C1c1cc(OC)c(OC)c(OC)c1 | inactive: 22.4% |
| COC(=O)c1cc(NC(=O)c2ccc(F)cc2)cc(C(=O)OC)c1 | inconclusive: 55.8% |
| C/C(=N\NC(=S)NC1CCCCC1)c1ccc(OC(F)F)cc1OC(F)F | inactive: -3.63% |
| C=CCn1c(SCC(=O)N2CCc3ccccc3C2)nc2sc(C)cc2c1=O | inconclusive: 39.8% |
| COc1cc(S(=O)(=O)N2CCN(c3ccccn3)CC2)ccc1Br | inconclusive: 55.4% |
| CC(=O)c1cccc(NC(=O)C(C)OC(=O)CCC2CCCCC2)c1 (centres undefined) | inconclusive: 63.3% |
| O=C(Nc1nc(-c2ccccc2)cs1)c1ccc(Br)o1 | active: 88.2% |
| O=C(NCCC1=CCCCC1)C1CCN(c2nc3ccccc3o2)CC1 | inconclusive: 37% |
| CC(C)c1ccc(C(=O)NN2CCOCC2)cc1 | inactive: 4.17% |
| O=C(Nc1ccncc1)Nc1ccc(Cl)cc1 | inconclusive: 68% |
| CCNC(=O)N1CCN(CCCC(c2ccc(F)cc2)c2ccc(F)cc2)CC1 | inconclusive: 31.8% |
| O=C(Nc1ccccc1)c1cccc(S(=O)(=O)Nc2ccccn2)c1 | inactive: 0.687% |
| CCCCN(C)CC(O)Cn1cc(/C=C/C(=O)c2cccs2)c2ccccc21 (centres undefined) | inconclusive: 41.1% |
| COc1ccc(NC(=O)c2ccc(F)c(F)c2)c2ccccc12 | inconclusive: 63.8% |
| CCc1cc(=O)oc2c3c(cc(OCC(=O)NCc4ccncc4)c12)OC(C)(C)CC3 | inconclusive: 64.2% |

Three structures already listed, ordered by molecular weight, low to high:

| Compound | activation |
| --- | --- |
| O=C(Nc1nc(-c2ccccc2)cs1)c1ccc(Br)o1 | active: 88.2% |
| C/C(=N\NC(=S)NC1CCCCC1)c1ccc(OC(F)F)cc1OC(F)F | inactive: -3.63% |
| CCc1cc(=O)oc2c3c(cc(OCC(=O)NCc4ccncc4)c12)OC(C)(C)CC3 | inconclusive: 64.2% |

More compounds:

| Compound | activation |
| --- | --- |
| FC(F)(F)c1nnc2c(Sc3ccc(Cl)cc3)nc3ccccc3n12 | inactive: -3.32% |
| C(#Cc1ccc(C#CCN2CCCC2)cc1)CN1CCCC1 | inactive: -3.01% |
| CC(C)c1ccc(NC(=S)N2CCN(S(=O)(=O)c3ccccc3)CC2)cc1 | inconclusive: 65.5% |
| Cc1ccc(S(=O)(=O)N(CC(=O)N2CCOCC2)c2ccc(Br)cc2)cc1 | inconclusive: 68.7% |
| CC(=O)c1ccc(OCc2cc(C(=O)N3CCC(Oc4ccccc4C)CC3)no2)cc1 | inconclusive: 37% |
| O=C(CCS(=O)(=O)c1ccccc1Cl)NCc1ccc(F)cc1 | inconclusive: 51.5% |
| CCC(CC)C(=O)N1CC(=O)Nc2ccc(C)cc2C1c1ccccc1 (centres undefined) | inconclusive: 48.7% |
| COc1cccc(C=Nc2ccc(N3CCOCC3)cc2)c1O | inactive: 1.66% |
| CN(C)c1cc(-c2ccc(Cl)cc2)oc(=O)c1Cl | inconclusive: 48.4% |
| O=c1c2cnn(-c3ccccc3)c2ncn1CCc1ccccc1 | inconclusive: 36.3% |
| CC1(C)Cc2c(sc3ncnc(NN)c23)CO1 | inactive: -2.94% |
| CCCCNC(=O)c1cn(CC)c2ccc(S(=O)(=O)N3CCCC3)cc2c1=O | inconclusive: 66.6% |
| CC(SCc1ccccc1)C(=O)N/N=C/c1ccc2c(c1)OCO2 (centres undefined) | inconclusive: 74.2% |
| COc1cc2cc(C(c3nnnn3C3CCCCC3)N(C)C3CCCCC3)c(=O)[nH]c2cc1OC (centres undefined) | inconclusive: 37.2% |
| Cc1ccc(C)c(OCC(=O)Nc2ccc(N3CCOCC3)cc2N2CCOCC2)c1 | inconclusive: 54.4% |
| CCOC(=O)c1c(NC(=S)Nc2cccnc2)sc(C)c1C | inactive: 8.17% |
| COc1ccc2nc(NC(=O)C3CCCN(S(=O)(=O)c4cccs4)C3)sc2c1 (centres undefined) | inactive: 2.32% |
| O=c1[nH]c(C2CCN(S(=O)(=O)c3ccc(S(=O)(=O)NC4CC4)cc3)CC2)nc2c1nnn2Cc1ccc(F)cc1 | inactive: -1.07% |
| COc1cccc(CN(Cc2cccnc2)S(=O)(=O)c2ccc(-n3cnnn3)c(C)c2)c1OC | inconclusive: 30.6% |
| O=C(COCc1cc(-c2ccc3c(c2)OCO3)on1)Nc1cccnc1 | inconclusive: 31.5% |
| CN1CCN(C(=S)Nc2ccc(Oc3ccccc3)cc2)CC1 | inconclusive: 34.2% |
| Cc1ccc(NC(=S)NCc2ccc(Cl)cc2)c(OC(F)F)c1 | inconclusive: 50% |
| O=C(NNC(=O)c1cc(Br)ccc1O)c1csc(N2CCOCC2)n1 | inactive: -5.21% |

| Compound | activation |
| --- | --- |
| CCn1nc(C)c(NC(=O)CCCSc2nc(-c3ccco3)cc(C(F)(F)F)n2)c1C | inconclusive: 38.9% |
| CCNC(=O)/C=C1\NC(C)(C)Cc2c1ccc1ccccc21 | inconclusive: 72.6% |
| Cc1ccc(Cl)cc1N1CCN(C(=O)c2cc3c(=O)n(C)c4ccccc4c3n2C)CC1 | inactive: 3.86% |
| CCN(CC)S(=O)(=O)c1ccc2nc(NC(=O)c3cccs3)sc2c1 | inconclusive: 46.7% |
| CC(=O)N1CC(C)Oc2ccc(S(=O)(=O)NC(CC(=O)O)c3ccccc3)cc21 (centres undefined) | inactive: -4.87% |
| Cc1ccc(/C(=N\O)c2oc3c(C)c4oc(=O)cc(C)c4cc3c2C)cc1 | inactive: -0.244% |
| COc1ccccc1C(=O)C1CCCN(C(=O)c2snnc2C)C1 (centres undefined) | inactive: -1.77% |
| CCCC(=O)Nc1nc(-c2ccc(Cl)s2)cs1 | inconclusive: 49.2% |
| Cc1cc(C)nc(N2CCCC(C(=O)Nc3ccc4c(c3)OCCO4)C2)n1 (centres undefined) | inconclusive: 73.3% |
| O=C(NC1CCCC1)C(c1cccnc1)N(C(=O)c1csnn1)c1ccccc1 (centres undefined) | inactive: 2.27% |
| O=C(/C=C/Nc1ccc([N+](=O)[O-])cc1Br)c1cccc2ccccc12 | inactive: -4.63% |
| CCOc1cccc(-c2c(C(=O)N/N=C/c3ccoc3)nnn2-c2nonc2N)c1 | inconclusive: 32.3% |
| CCOC(=O)N1CCN(C(=O)NC23CC4CC(CC(C4)C2)C3)CC1 | inconclusive: 52.7% |
| COc1ccc(N(C)S(=O)(=O)c2cccc(C(=O)Nc3nc(C)cs3)c2)cc1 | inconclusive: 34.1% |
| O=C(/C=C/c1ccco1)Nc1ccc(Oc2ccccc2)cc1 | inconclusive: 67.4% |
| O=C(NCC1CCCO1)c1cc2c([nH]c3ccccc32)c(-c2cccc(Br)c2)n1 (centres undefined) | inconclusive: 48.1% |
| O=C(CN1CCN(C(=O)CNC(=O)c2ccc3c(c2)OCO3)CC1)Nc1ccccc1Cl | inactive: 15.7% |
| COc1ccc(OCC(=O)Nc2ccc(NC(=O)c3cccs3)c(OC)c2)cc1 | inactive: 6.17% |
| O=C1C=C(c2ccccc2)C[C@@H](c2ccc(Cl)cc2)C1 | inconclusive: 47.2% |
| Cc1csc(C(=O)NN)c1N(C)C | inconclusive: 68.1% |
| CCOC(=O)NN=C1c2ccccc2-c2ccccc21 | inconclusive: 32.4% |
| CC1(C)CC(=O)c2cc(OCC(=O)NCCN3CCOCC3)ccc2O1 | inactive: 5.05% |
| COc1cc(Cl)c(C)cc1N1C(=O)CN(Cc2ccccc2)C1=S | inconclusive: 56.4% |

| Compound | activation |
| --- | --- |
| COc1ccc(-c2nn(-c3ccccc3)cc2/C=C/C(=O)N2CCOCC2)cc1OC | inconclusive: 77.7% |
| CC(=O)c1cccc(NC(=O)C2CCCN(S(=O)(=O)c3ccc(F)cc3)C2)c1 (centres undefined) | inactive: 22.7% |
| Cc1ccc(-c2cc(-c3ccccc3)nc(N(C)N)n2)cc1 | inconclusive: 59.2% |
| COCCNC(=O)/C(C#N)=C/c1cccs1 | inactive: 0.0952% |
| O=C(c1ccc(-c2cccc(C(F)(F)F)c2)o1)N1CCCCCCC1 | inconclusive: 52.8% |
| Cc1ccc(S(=O)(=O)N2Cc3ccccc3CC2C(=O)NC(C)(C)C)cc1 (centres undefined) | inconclusive: 30.1% |
| O=C(/C=C/c1ccco1)N1CCCC(c2ccccc2)C1 (centres undefined) | inconclusive: 32.6% |
| Cc1ccccc1N1CCN(Cc2nc(Cc3ccccc3)no2)CC1 | inconclusive: 37.9% |
| CCOc1ccc2[nH]c(=O)c(CN(CCO)C(=O)c3ccc(Br)cc3)cc2c1 | inactive: 3.22% |
| Cc1cc(C(=O)N2CCN(c3ccccc3)CC2)no1 | inconclusive: 67.7% |
| NC(=O)CC(NC(=O)c1ccccc1)c1ccc(N2CCN(c3ccccn3)CC2)c([N+](=O)[O-])c1 (centres undefined) | inactive: 2.32% |
| COc1ccc(CNCCc2ccc(Cl)cc2)cc1OCc1ccccc1 | inactive: -0.299% |
| NC(=O)c1ccccc1N=Cc1ccccn1 | inactive: -0.807% |
| CC1CCN(Cc2cc(=O)oc3ccc4ccccc4c23)CC1 | inconclusive: 34.6% |
| CCCCn1c2c(c(=O)n(C)c1=O)C(c1ccc(OC)cc1)N1CCCCCC1=N2 (centres undefined) | inactive: 25.5% |
| COc1ccc(CNC(=S)NCc2ccc(F)cc2)cc1OC | inconclusive: 79% |
| COc1ccc(-c2csc(NC(C)=O)n2)cc1OC | inactive: -5.1% |
| Cc1cc(C)n(-c2nnc(NC(C)(C)C)nn2)n1 | inactive: 2.05% |
| Cc1ccccc1OCC(=O)Nc1ccc(N2CCOCC2)cc1N1CCOCC1 | inconclusive: 39.5% |
| O=C(NCC(c1ccco1)N1CCc2ccccc2C1)c1ccccc1 (centres undefined) | inconclusive: 34.5% |

Exported comma-delimited: part of the list above.
Compound,activation
CCCCn1c2c(c(=O)n(C)c1=O)C(c1ccc(OC)cc1)N1CCCCCC1=N2 (centres undefined),inactive: 25.5%
COc1ccc(CNC(=S)NCc2ccc(F)cc2)cc1OC,inconclusive: 79%
COc1ccc(-c2csc(NC(C)=O)n2)cc1OC,inactive: -5.1%
Cc1cc(C)n(-c2nnc(NC(C)(C)C)nn2)n1,inactive: 2.05%
Cc1ccccc1OCC(=O)Nc1ccc(N2CCOCC2)cc1N1CCOCC1,inconclusive: 39.5%
O=C(NCC(c1ccco1)N1CCc2ccccc2C1)c1ccccc1 (centres undefined),inconclusive: 34.5%
